Laboratory results taken from publication PMC10517005, “A conserved membrane protein negatively regulates Mce1 complexes in mycobacteria” (Nature Communications, 2023).
No constants are given. Whether binding was seen depends on the method and setting. In cells and extracts the contact can be indirect. Some results given as binding are weak or reduced against the parent protein; the word gives no strength. Sequences can lack the tags named with a protein.

Target: T1, His6-YrbE1B (M. smegmatis)
T1 sequence: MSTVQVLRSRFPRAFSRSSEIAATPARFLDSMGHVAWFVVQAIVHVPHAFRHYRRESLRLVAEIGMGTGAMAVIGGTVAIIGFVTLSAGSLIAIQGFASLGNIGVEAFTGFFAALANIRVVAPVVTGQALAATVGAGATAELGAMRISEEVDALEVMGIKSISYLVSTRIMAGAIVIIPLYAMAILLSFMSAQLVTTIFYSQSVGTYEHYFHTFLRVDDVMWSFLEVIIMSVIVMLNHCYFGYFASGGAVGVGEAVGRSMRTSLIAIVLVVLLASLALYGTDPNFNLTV
Assay: pull-down; His-tag affinity purification (TALON resin) from DDM-extracted membranes of E. coli co-expressing the His-tagged bait and MSMEG_0959-FLAG; SDS-PAGE, α-His and α-FLAG immunoblots; TBS pH 8.0, wash with 300 mM NaCl, 0.05% DDM

- binding: binds
B1: MSMEG_0959-FLAG (protein)
chain: MTEPAGHEPPEAAGMSGVPDASGAAPAGEVLFYEQGASWAWLLSGPIAGVGMAILQRTGGYGYDLWIPLIFLVLVSGFIAIQIKAARIHTSVELTRETLRQGTEIISIDEIVDIYPEASGSEVPKWQSARALGELTGVPRGRTGIGLKLTGKRVAQAWARRHRTLRAALQQLVEERTP
